Measurements taken from publication PMC12214830, “The human RIF1-Long isoform interacts with BRCA1 to promote recombinational fork repair under DNA replication stress” (Nature Communications, 2025).
Results are given in words; binding and its absence hold for the method and conditions named. Some results given as binding are weak or reduced against the parent protein; the word gives no strength.

The chains behind the UniProt entries cited, without tags or fusion partners. Residues count along the entry.
UniProt P38398, residues 1646-1859: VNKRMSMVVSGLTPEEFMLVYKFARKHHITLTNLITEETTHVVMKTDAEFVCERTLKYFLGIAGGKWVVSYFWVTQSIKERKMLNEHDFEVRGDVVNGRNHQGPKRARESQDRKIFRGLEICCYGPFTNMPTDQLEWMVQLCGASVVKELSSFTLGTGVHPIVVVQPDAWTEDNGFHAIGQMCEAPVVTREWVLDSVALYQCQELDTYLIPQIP

Molecular target: T1, Flu-BRIP1pS990 (fluorescein-labelled BRIP1 phospho-peptide)
T1 sequence (peptide, fluorescein on the N-terminus; phosphoserine at S990 (pS)): GYGIVISRSTSPTFNKQT
Test: fluorescence polarisation; 200 nM fluorescein-labelled peptide with increasing His6-SUMO-BRCT2 protein; room temperature; 25 mM HEPES pH 7.5, 200 mM NaCl, 1 mM EDTA, 0.25 mM TCEP, 0.02% Tween-20; one site-specific binding fit; Lambda phosphatase with 1 mM MnCl2 to remove the phosphate; both …

binding: binds
Substance: His6-SUMO-BRCA1-BRCT2 (tandem BRCT domains of BRCA1, tag kept) (from UniProt P38398 1646-1859) (domain or fragment)
